PubChem BioAssay AID1224830, NIAID, 2016

Test: 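Host factors that control LPS-induced TNF expression in human macrophages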 (primary screen)
Cells: human THP-1 monocytic leukaemia cells, TNF dual-luciferase reporter clone, PMA-differentiated to macrophage-like cells
Knock-down reagent: siRNA pool against human genes, 50 nM
Duration: LPS for 4 h, given about 3 days after siRNA transfection
Conditions: bacterial LPS (TLR4 ligand), 10 ng/ml
Measured: 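Ratio of firefly to renilla light, scaled to the plate median and expressed as a robust z-score per replicate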
Scale: TNF reporter robust z-score: higher = stronger TNF reporter response to LPS
Call rule: 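a well is active when its z-score exceeds 2.8 or falls below -1.5; control wells carry no call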
Here is a random part of about 18,000 reagents tested. In the full data, about 2,900 (16%) got an active call. 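Calls are made per well; low scores hint the gene aids the LPS response, high scores that it dampens it.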 Unmarked entries are inactive. Repeated entries: four replicate wells of each siRNA pool. No sequences are given here.

target gene	TNF reporter robust z-score
URM1 (ubiquitin related modifier 1)	-0.65
URM1 (ubiquitin related modifier 1)	-0.23
URM1 (ubiquitin related modifier 1)	-0.85
URM1 (ubiquitin related modifier 1)	-0.62
FBXO30 (F-box protein 30)	-2.06 (active)
FBXO30 (F-box protein 30)	-1.47
FBXO30 (F-box protein 30)	-1.38
FBXO30 (F-box protein 30)	-0.41
PLPP2 (phospholipid phosphatase 2)	1.15
PLPP2 (phospholipid phosphatase 2)	0.68
PLPP2 (phospholipid phosphatase 2)	-0.15
PLPP2 (phospholipid phosphatase 2)	0.51
NME1 (NME/NM23 nucleoside diphosphate kinase 1)	-0.17
NME1 (NME/NM23 nucleoside diphosphate kinase 1)	3.43 (active)
NME1 (NME/NM23 nucleoside diphosphate kinase 1)	-0.75
NME1 (NME/NM23 nucleoside diphosphate kinase 1)	0.6
DOK3 (docking protein 3)	-0.74
DOK3 (docking protein 3)	-0.83
DOK3 (docking protein 3)	-0.91
DOK3 (docking protein 3)	-0.45
SIGLEC6 (sialic acid binding Ig like lectin 6)	-0.87
SIGLEC6 (sialic acid binding Ig like lectin 6)	-1.2
SIGLEC6 (sialic acid binding Ig like lectin 6)	-1.31
SIGLEC6 (sialic acid binding Ig like lectin 6)	-0.64
HOXD3 (homeobox D3)	0.71
HOXD3 (homeobox D3)	1.4
HOXD3 (homeobox D3)	0.33
HOXD3 (homeobox D3)	-0.22
FDFT1 (farnesyl-diphosphate farnesyltransferase 1)	0.4
FDFT1 (farnesyl-diphosphate farnesyltransferase 1)	-0.47
FDFT1 (farnesyl-diphosphate farnesyltransferase 1)	-1.33
FDFT1 (farnesyl-diphosphate farnesyltransferase 1)	-0.32
CD24 (CD24 molecule)	0.22
CD24 (CD24 molecule)	1.88
CD24 (CD24 molecule)	-0.85
CD24 (CD24 molecule)	-0.19
DEPDC4 (DEP domain containing 4)	-1.29
DEPDC4 (DEP domain containing 4)	-0.43
DEPDC4 (DEP domain containing 4)	2.53
DEPDC4 (DEP domain containing 4)	-0.21
PDPK1 (3-phosphoinositide dependent protein kinase 1)	-1.26
PDPK1 (3-phosphoinositide dependent protein kinase 1)	-1.49
PDPK1 (3-phosphoinositide dependent protein kinase 1)	-0.27
PDPK1 (3-phosphoinositide dependent protein kinase 1)	-1.09
SPHK1 (sphingosine kinase 1)	-0.98
SPHK1 (sphingosine kinase 1)	-0.55
SPHK1 (sphingosine kinase 1)	-0.65
SPHK1 (sphingosine kinase 1)	-1.21
OR13C5 (olfactory receptor family 13 subfamily C member 5)	9.75 (active)
OR13C5 (olfactory receptor family 13 subfamily C member 5)	1.88
OR13C5 (olfactory receptor family 13 subfamily C member 5)	1.3
OR13C5 (olfactory receptor family 13 subfamily C member 5)	0.82
LAMTOR2 (late endosomal/lysosomal adaptor, MAPK and MTOR activator 2)	-1.65 (active)
LAMTOR2 (late endosomal/lysosomal adaptor, MAPK and MTOR activator 2)	1.37
LAMTOR2 (late endosomal/lysosomal adaptor, MAPK and MTOR activator 2)	-1.94 (active)
LAMTOR2 (late endosomal/lysosomal adaptor, MAPK and MTOR activator 2)	-1.31
TACR3 (tachykinin receptor 3)	-1.63 (active)
TACR3 (tachykinin receptor 3)	-1.08
TACR3 (tachykinin receptor 3)	-0.39
TACR3 (tachykinin receptor 3)	-0.19
HADH (hydroxyacyl-CoA dehydrogenase)	-0.35
HADH (hydroxyacyl-CoA dehydrogenase)	0.45
HADH (hydroxyacyl-CoA dehydrogenase)	-0.06
HADH (hydroxyacyl-CoA dehydrogenase)	0.52
HCN2	-0.45
HCN2	3.35 (active)
HCN2	1.46
HCN2	1.58
C17orf78 (chromosome 17 open reading frame 78)	-0.54
C17orf78 (chromosome 17 open reading frame 78)	-1.19
C17orf78 (chromosome 17 open reading frame 78)	-0.79
C17orf78 (chromosome 17 open reading frame 78)	-1.26

Records above whose gene name starts with N or n:
target gene	TNF reporter robust z-score
NME1 (NME/NM23 nucleoside diphosphate kinase 1)	-0.17
NME1 (NME/NM23 nucleoside diphosphate kinase 1)	3.43 (active)
NME1 (NME/NM23 nucleoside diphosphate kinase 1)	-0.75
NME1 (NME/NM23 nucleoside diphosphate kinase 1)	0.6

More entries follow:
target gene	TNF reporter robust z-score
NPY2R (neuropeptide Y receptor Y2)	2.78
NPY2R (neuropeptide Y receptor Y2)	0.53
NPY2R (neuropeptide Y receptor Y2)	2.75
NPY2R (neuropeptide Y receptor Y2)	0.58
MRC2 (mannose receptor C-type 2)	-0.08
MRC2 (mannose receptor C-type 2)	2.65
MRC2 (mannose receptor C-type 2)	2.24
MRC2 (mannose receptor C-type 2)	1.02
CCDC140 (CCDC140 long non-coding RNA)	4.48 (active)
CCDC140 (CCDC140 long non-coding RNA)	3.49 (active)
CCDC140 (CCDC140 long non-coding RNA)	1.53
CCDC140 (CCDC140 long non-coding RNA)	1.44
USP20 (ubiquitin specific peptidase 20)	-1.45
USP20 (ubiquitin specific peptidase 20)	0.06
USP20 (ubiquitin specific peptidase 20)	-0.91
USP20 (ubiquitin specific peptidase 20)	0.03
IRAK1BP1 (interleukin 1 receptor associated kinase 1 binding protein 1)	-0.08
IRAK1BP1 (interleukin 1 receptor associated kinase 1 binding protein 1)	-0.09
IRAK1BP1 (interleukin 1 receptor associated kinase 1 binding protein 1)	0.34
IRAK1BP1 (interleukin 1 receptor associated kinase 1 binding protein 1)	0.91
CERT1 (ceramide transporter 1)	1.02
CERT1 (ceramide transporter 1)	2.9 (active)
CERT1 (ceramide transporter 1)	0.67
CERT1 (ceramide transporter 1)	0.48
COX6C (cytochrome c oxidase subunit 6C)	-1.01
COX6C (cytochrome c oxidase subunit 6C)	-0.51
COX6C (cytochrome c oxidase subunit 6C)	-0.91
COX6C (cytochrome c oxidase subunit 6C)	0.31
PARS2 (prolyl-tRNA synthetase 2, mitochondrial)	-0.7
PARS2 (prolyl-tRNA synthetase 2, mitochondrial)	-1.58 (active)
PARS2 (prolyl-tRNA synthetase 2, mitochondrial)	-1.3
PARS2 (prolyl-tRNA synthetase 2, mitochondrial)	-0.79
VASH2 (vasohibin 2)	0.47
VASH2 (vasohibin 2)	0.06
VASH2 (vasohibin 2)	-0.05
VASH2 (vasohibin 2)	0.12
GH1 (growth hormone 1)	0.95
GH1 (growth hormone 1)	1.69
GH1 (growth hormone 1)	-0.11
GH1 (growth hormone 1)	-1.4
